Experimental data published in publication PMC12214830, “The human RIF1-Long isoform interacts with BRCA1 to promote recombinational fork repair under DNA replication stress” (Nature Communications, 2025).
These are yes or no findings as the source states them, for the method shown. Some entries that bind do so weakly or less than the wild type.

The chains behind the UniProt entries cited, without tags or fusion partners. Residues count along the entry.
UniProt P38398, residues 1646-1859: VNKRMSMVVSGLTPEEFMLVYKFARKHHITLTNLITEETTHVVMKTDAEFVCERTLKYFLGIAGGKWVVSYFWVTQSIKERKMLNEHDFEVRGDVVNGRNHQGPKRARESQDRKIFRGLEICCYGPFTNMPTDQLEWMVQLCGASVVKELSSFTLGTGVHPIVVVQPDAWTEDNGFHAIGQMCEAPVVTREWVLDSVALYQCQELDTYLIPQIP

Target: T1, Flu-BRIP1pS990 (fluorescein-labelled BRIP1 phospho-peptide)
T1 sequence (peptide, fluorescein on the N-terminus; phosphoserine at S990 (pS)): GYGIVISRSTSPTFNKQT
Experiment: fluorescence polarisation; 200 nM fluorescein-labelled peptide with increasing His6-SUMO-BRCT2 protein; room temperature; 25 mM HEPES pH 7.5, 200 mM NaCl, 1 mM EDTA, 0.25 mM TCEP, 0.02% Tween-20; one site-specific binding fit; Lambda phosphatase with 1 mM MnCl2 to remove the phosphate; both …

Substance: His6-SUMO-BRCA1-BRCT2 (tandem BRCT domains of BRCA1, tag kept) (from UniProt P38398 1646-1859) (domain or fragment)
- binding: binds
